For 10 molecules, survivor count and T/C results are on record in PubChem BioAssay AID248 (DTP/NCI, 2004).

The assay relates to L1210 leukemia ip in BDF1 mice, survival T/C. The assay is described as follows: NCI In Vivo Anticancer Drug Screen. Data for tumor model L1210 Leukemia (intraperitoneal) in B6D2F1 (BDF1) mice. To be noted: T/C endpoint: mean survival time, higher T/C = longer survival.
The mark [1] stands for this setting: dose: 400.0 mg/kg/injection, schedule: Q04DX003 (ip), vehicle: Klucel (hydroxypropylcellulose) (HPC).
[2] abbreviates: dose: 1.5 mg/kg/injection, schedule: Q01DX001 (ip), vehicle: saline.
Where [3] appears, read: dose: 300.0 mg/kg/injection, schedule: Q01DX001 (ip), vehicle: saline.

The list is a part of this screen's results and no random one: it gathers tests that were run many times, whatever their T/C, doses with no T/C, and many T/C values between a quarter and a half above the control. Other doses and runs of a compound stand elsewhere. T/C is the treated group as % of the vehicle group. Some doses have a count of surviving animals in place of a T/C: the source files T/C as zero there, which appears to mark a toxic dose or a test without result, not a measured value. Some survivor counts are full or nearly so, which does not show that the dose was tolerated: the source hardly ever lists a survival T/C far under the control, and the zero likely stands for such cases as well. Survivors were counted at the toxicity check, usually on the fifth day, unless a day is given; later deaths do not show. Schedules are NCI's codes, taken here to give the interval after Q, in days (D) or hours (H), and the number of doses after X. Some doses were run more than once; the results are listed from low to high. Where survival is the endpoint, this PubChem deposit counts one and a half times the control or more as active, and values a quarter to a half above the control carry no call in these data; other NCI protocols may use other cut-offs.

Regarding `CCCC(C)C(C#N)c1ccccc1` (stereo not given), the survivor count was 5 of 6 (dose: 25.0 mg/kg/injection, schedule: Q01DX009 (ip), vehicle: Klucel (hydroxypropylcellulose) (HPC)); 3 of 6 (dose: 75.0 mg/kg/injection, schedule: Q01DX009 (ip), vehicle: Klucel (hydroxypropylcellulose) (HPC)); 2 of 6 and 3 of 6 (dose: 100.0 mg/kg/injection, schedule: Q01DX009 (ip), vehicle: Klucel (hydroxypropylcellulose) (HPC)); 6 of 6 (dose: 100.0 mg/kg/injection, schedule: Q04DX003 (ip), vehicle: Klucel (hydroxypropylcellulose) (HPC)); 2 of 6 (dose: 200.0 mg/kg/injection, schedule: Q04DX003 (ip), vehicle: Klucel (hydroxypropylcellulose) (HPC)); 0 of 6 under setting [1].

On to `O=C(O)/C=C/c1c2ccc(=O)c(O)c-2oc2c(O)c(O)ccc12`, for which the survivor count (dose: 200.0 mg/kg/injection, schedule: Q04DX003 (ip), vehicle: other) is 1 of 6.

Turning to `Cc1ccccc1Nc1n[nH]c(=S)s1`, the survivor count (dose: 400.0 mg/kg/injection, schedule: Q04DX003 (ip), vehicle: saline with Tween-80) is 0 of 6.

In the case of `CC(=O)Cc1cc(=O)[nH]c(=O)[nH]1`, where the note is “dose: 50.0 mg/kg/injection, schedule: Q01DX009 (ip), vehicle: saline with Tween-80”, the survivor count is recorded as 3 of 3.

`O=C1C(NCCO)=C(N2CC2)C(=O)C(NCCO)=C1N1CC1`: the T/C is 133 % of control (dose: 0.04 mg/kg/injection, schedule: Q01DX009 (ip), vehicle: saline); 135 and 140 % of control (dose: 0.09 mg/kg/injection, schedule: Q01DX009 (ip), vehicle: saline); 125 % of control (dose: 0.09 mg/kg/injection, schedule: Q04DX003 (ip), vehicle: saline); 136 and 144 % of control (dose: 0.18 mg/kg/injection, schedule: Q04DX003 (ip), vehicle: saline); 127 % of control (dose: 0.37 mg/kg/injection, schedule: Q04DX003 (ip), vehicle: saline); 141 % of control (dose: 0.75 mg/kg/injection, schedule: Q01DX001 (ip), vehicle: saline). Also, the T/C reads like this: (dose: 0.75 mg/kg/injection, schedule: Q01DX009 (ip), vehicle: saline) 176, 228, 234, 305 % of control; (dose: 0.75 mg/kg/injection, schedule: Q04DX003 (ip), vehicle: saline) 146 % of control; under setting [2], 139 % of control. In addition, the survivor count runs as follows: under setting [2], 3 of 6; (dose: 1.5 mg/kg/injection, schedule: Q01DX009 (ip), vehicle: saline) 6 of 6; (dose: 3.0 mg/kg/injection, schedule: Q01DX001 (ip), vehicle: saline) 3 of 6 and 4 of 6; (dose: 3.0 mg/kg/injection, schedule: Q01DX009 (ip), vehicle: saline) 5 of 6 and 6 of 6; (dose: 3.12 mg/kg/injection, schedule: Q04DX003 (ip), vehicle: saline) 6 of 6; (dose: 6.0 mg/kg/injection, schedule: Q01DX001 (ip), vehicle: saline) 2 of 6 and 5 of 6. The survivor count is 4 of 6 and 5 of 6 (dose: 6.0 mg/kg/injection, schedule: Q04DX003 (ip), vehicle: saline); 1 of 6 (dose: 6.25 mg/kg/injection, schedule: Q04DX003 (ip), vehicle: saline); 3 of 6 and 6 of 6 (dose: 12.0 mg/kg/injection, schedule: Q01DX001 (ip), vehicle: saline); 5 of 6 (dose: 12.5 mg/kg/injection, schedule: Q04DX003 (ip), vehicle: saline); 4 of 6 (dose: 25.0 mg/kg/injection, schedule: Q04DX003 (ip), vehicle: saline); 1 of 6 (dose: 50.0 mg/kg/injection, schedule: Q04DX003 (ip), vehicle: saline). In addition, the survivor count (dose: 100.0 mg/kg/injection, schedule: Q04DX003 (ip), vehicle: saline) is on record as 0 of 6.

As for `O=NN(CCCl)C(=O)NC1CCSCC1`, the T/C (dose: 2.0 mg/kg/injection, schedule: Q01DX001 (ip), vehicle: carboxymethylcellulose (CMC)) is 134 % of control. For the same molecule, the survivor count (dose: 27.0 mg/kg/injection, schedule: Q01DX001 (ip), vehicle: carboxymethylcellulose (CMC)) is reported as 10 of 10; the survivor count (dose: 31.0 mg/kg/injection, schedule: Q01DX001 (ip), vehicle: carboxymethylcellulose (CMC)) is recorded as 3 of 6; the survivor count (dose: 32.0 mg/kg/injection, schedule: Q01DX001 (ip), vehicle: carboxymethylcellulose (CMC)) is 8 of 10; the survivor count (dose: 62.0 mg/kg/injection, schedule: Q01DX001 (ip), vehicle: carboxymethylcellulose (CMC)) is reported as 2 of 6; the survivor count (dose: 125.0 mg/kg/injection, schedule: Q01DX001 (ip), vehicle: carboxymethylcellulose (CMC)) is on record as 1 of 6; the survivor count (dose: 250.0 mg/kg/injection, schedule: Q01DX001 (ip), vehicle: carboxymethylcellulose (CMC)) was 0 of 6. The survivor count is on record as 0 of 6 (dose: 375.0 mg/kg/injection, schedule: Q01DX001 (ip), vehicle: carboxymethylcellulose (CMC)) and 0 of 6 (dose: 500.0 mg/kg/injection, schedule: Q01DX001 (ip), vehicle: carboxymethylcellulose (CMC)).

Take `O=C(O)c1cc(C(=O)c2ccccn2)c2cccc(C(F)(F)F)c2n1`: the survivor count under setting [1] is listed as 0 of 6.

Turning to `C1CCC(NCCNC2CCCCC2)CC1`, the survivor count by setting is: (dose: 150.0 mg/kg/injection, schedule: Q01DX001 (ip), vehicle: saline) 3 of 6; under setting [3], 1 of 6.

As to `CCCCCC(=O)Oc1c(C(C)(C)C)cc([N+](=O)[O-])c(C)c1[N+](=O)[O-]`, the survivor count (dose: 400.0 mg/kg/injection, schedule: Q04DX002 (ip), vehicle: saline) is 1 of 3.

Take `N#Cc1cc[n+](Cc2ccccc2)cc1`: the survivor count under setting [3] is listed as 1 of 6.
